From PMC13289029
These are yes or no findings as the source states them, for the method shown. Binding seen in cells or lysates may run through a third protein. These calls come from enrichment with a bait or labelling near it, and not all partners need be listed.

B1: MltG (protein, UniProt Q8DSP6 1-614)
chain: MKKAKQSRKNRDISQVKKGNVAKDHQKYSDSAVQKQDKEETRTVMPIPEGNITDKDVDNVLANLDEIFAPGQLNHSDQINEKENSQQITGKQSSSLKTGSATQETETFQSKESLTLPNKKTSENKVSDVLEVKVKKTNNWVDDGEAENWQLPDLTEKLTNNNDEETKELPLSSLAEKTNSESEMKHSVKETEELLKQEKKLSSKYDKTKSQTKASSKEKDVTANLNQKRQQHYKKTNRLAKKISTVLITFILILLLGTGLFGYYYVSSAIKPLDAHSTKYIQVEIPSGSGNRMIGKILEKAGVIKNATVFNFYTKFRNYSNLQSGYYNLQKSMSLDDIAKTLKNGGTTTPQAPVLGKVVIPEGYTIKQISKAITSNANTKKKTDKTPFTAKEFLKTVKDKAFIEKMVKKYPRLLGSLPDASKVTYQLEGYLFPATYSYGEKTSIEDLIDNMLAAMDTNMQSYYDTIESQGKTVNDILTLASLVEKEGATDDDRKKIAGIFYNRINQDMPLQSNIAILYAMGKLGEKTSLKEDATINTKIDSPYNVYTNKGLMPGAVDNPSLSAIKAAVEPESTDDLYFVADVTTGEVHYAKTYEEHSANVEKYVNKKVASSSDS
B2: SMU_502 (protein, UniProt Q8DVI6 1-566)
chain: MASKEKWTELFEKVIGRKPTPQEFLEGKKGFFDLKEIKKIAGVDKADDLQETSSDIKQAILGNSITAVKPDNESSKEETKSTDKPVSTEVDKSPKQLWVEAFEKTIGRQPTPEEFISGRNQDFDLAKISQLVEKESVSKTSNLAKAPFTKGKKILITLGLVCLLALVVGYIYGNQYFSREAVAQRYLKVANSNFDKALEFEVWSDTEKPIKKSELTYRNSKETRTVTMDKLTSDASQMKKVGNKFLIFPDWRVAIKPASAKISINTKGLELFINDKRVTKADSDSFSQTISRLYPGTYNFVAKGNISGQKVEVSSEEKLTNHSTINLNVKYLSFKVNSNLTDGDLYVGSRKIGTLKDGKYNVTKLAVTDTSKIYVQKSFSGKATLKSEVQSIEDVYDGDTISLDAKGVLDRDTADSLITQAYYKLDSYASSHTTPDDLDDIFTSGNHNNFYLDVKNTIDTNTTNAKNRSADSINFSDVDVTKVTQTSPTTYAVEFTVVYDFYYSYSSEHKSSGSITQKLSWSALVEYVGDNKKNSSDSYSYNSYEDYRITSDNGKSSVLSTKNTVD
B3: SMU_1412c (protein, UniProt Q8DTD8 1-842)
chain: MLELKHITKVYETAGIKRMALENVSVNFRANEFVAVLGQSGSGKTTLLNIIGGLDQYTTGDLLINGKSTKDFKDKDWDSYRNNTIGFVFQSYNLISHQTALANVELALTLSGVSKAERRKRALDALKRVGLEDEINKKPNQMSGGQMQRVAIARALVNNPDILLADEPTGALDSETSLQIMDLLKEIAQERLVIMVTHNPDLAEKYSNRIIKVLDGHIINDSNPYTDDEIRKATVDFKKTKMSFTTALSLSFNNLLTKKGRTLLTAFAGSIGIIGIALILSLSNGVQKYIAKTQEDTLVAYPLSIEKSSNKNFIGLLAANSNENKKSDKKKTNKKIGTNSILKNMISTQVVDNDLASFKTYIKKHQKKFAAVTKDIQYSYKITPRIYQSDTSKGVKAVNPNTLSKDLKDTSTSIQTVVSNLDIWQELSSNEKMLSSQYQVISGHLPKQYNEVVLMADENNKIDDYVLYSLGIKDAKQLNSKTIKKVKASSYHYKDLIGRTYKLVINSDLYQKEGNAWIDRSDNDAYMKQVINAAENIKIVGIVKPQEGTTSESSSAGVGYSHDLTDYLAKKIKSSTIAKEQLANKKLNVFTGQSFSSGNKTFSSDNLSVQQQASMASMSAEELADYVNRYNENANATYKDNLEKIGIIDNNNPETIHFYASSFKDKEALKDLISDYNKKVKKDKHKSRVIRYTDTVGLMMSSVTTMINAVTYILIGFVAISLIVSSIMIGIITYISVLERTKEIGVLRAMGASKRDVTRIFTAETIIEGAIAGVLGILITLLLNIAITLIVKNWLNINHISSLPIWSAIVLIAISIVLTVFAGILPSRVAAKKDPVEALRTE
B4: EzrA (protein, UniProt Q8DTQ3 1-574)
chain: MSSGIVLLIVAIVLVVIIAYLIAIIIRKRNDSLITKLEERKQNLFDLPVNDEIEEVKKLHLIGQSQTTFREWNQKWVDLSLNSFSDIENHIFEAENLNDTFNFIRAHSQINNIESQLNLAEEDIKAIREALAVLKEQEEKNSARVLHALEMYESLQASIEEGDSNFGITMPEIEKQLKNIEAEFSQFVTLNSSGDPVEASEILDRAEEHTIALGQMTEKIPAIVAKLEDDFPDQLDDLESGYRRLLEENYHFPEKNIEERFQEVREAIGNNSNELVSLDLDKAESENEAIQEKIDSLYDIFEREIRAHKNIVKSKKIIPAYLEHAKKNNEQLEAEIERLNHRYILNEKEELNVRDFNEEIASVEKDVLPIIENFDTQEKPFSVLEDKFDRAIKKLDLVEEGQLDVFNSLKNIENVEKTARQKLDSYINRLHAIKRFMEKRNLPGIPQDFLSVFFTTSAQLEALMDELNRARIHIETVNRMTEAATAAVENLEETAYRVVQNATLTEQLLQYSNRYRSFEPSVQESFDIALKLFETDYDYQGSFDEISYSLETVEPGVTDRFVSSYEKTRETIRF
B5: OpuCa (protein, UniProt Q8DRU8 1-383)
chain: MDKDPVIEFKEVNKIYGDNVAVKHINLKIMAGEFVCLIGTSGSGKTTILRMINRMLKPSNGKIFIKGEEISDLNPVQLRRKIGYVIQNIGLMPHMTIYENITLVPKLLKWSEDKKKAKAKELIKLVELPEDFLDRYPYELSGGQQQRIGVVRALAADQDIILMDEPFGALDPITREGLQDLVKSLQEKTGKTIVLVTHDMDEALKLATKIVVMDKGHMVQQANPTELLRHPATAFVKKMIGEDRLIQARADVTPVKNIMLKDPVSIAPDKSLNDAISLMRQKRVDSLLVTDKDNKLLGMIDVESLNNNYKQNLVVADILNKISFYLEEDQLLRDTAHRILKRGLKYVPVIDKEWHLKGIVTRSSLVDMLYDIIWGNQDTEETL
B6: PknB (protein, UniProt Q8DVK1 1-616)
chain: MIQIGKLFAGRYRILQSIGRGGMADVYLANDLILDNEEVAIKVLRTNYQTDQVAVTRFQREARAMAELNHPNIVAIRDIGEEDGQQFLAMEYVDGADLKKYIQDHAPLSNAEVIRIMKEVLSAMTLAHQKGIIHRDLKPQNVLLTKDGTAKVTDFGIAVAFAETSLTQTNSMLGSVHYLSPEQARGSKATVQSDIYAMGIMLFEMLTGHIPYDGDSAVTIALQHFQKPLPSIIAENKNVPQALENVVIKATAKRLTDRYHSTQEMLQDLRTSLQPNRSRERKLVFSDASDTKPLPKLEQAAANSLAAQSLKNKTSNQDKVDHKSKPKTKPQPKPKKKRHFLARFFKIFFILVAIGIAVLTYLVLTKPSTVSVPDVSGDKLSTAKMIIRKSGLKVGDVQKIEDDNVGAGKVVRTNPSAGSKKREGSSVDIFVASAKGFKMEDYTGQDYKDAIDNLTNNYGVSRDSIVLKEVSSDDYSGGTVIGQSPKPGKTYHPSSDKKITLKVVKVTMPNLKNSTYEEAVSTLTAMGISSSRIKAYDASDYSSEISSPSSSSLVVGQSPYYGNTVSLSSNDDIILYVSTSGGSHSGSSSSESSNSEGTTSSEASTDSSSSATTTSH
B7: FtsK (protein, UniProt Q8DSX7 1-787)
chain: MAKTKNKRKGRKTRRPTKAELEKQRAIKRMVFALFMAFVLFFAIFKLGRVGVTVYNIIRLMVGSLAYPFIFAALIYLFATKWLKKHDGLVGGFVITMLGMLLEWQAYLFSLATMKDQSVIKGTLVIVFSDLSKFRVANFAGGGFLGALLYMPVAFLFSNIGSFLIGGLFLLLGLFLMSPWDVYDVMNFFKDSYAKWQVKRQENREKRFAQKEEARLLAQQAVQEAQESATFDHGLNAAIDLETGEVLDQAQTIDLDDFDGQVHKEPEIIGYQSDPEGEALEAEVPAAEQTSQLPKEEDMSDESLEVDFTPKTTLHYKLPGIDLFAKDKPKNQSKEKRLVRDNIKILEETFTSFGIKANVERAEIGPSVTKYEVKPAVGVRVNRISNLADDLALALAAQDVRIEAPIPGKSLVGIEVPNSEVATVTFRELWEQAKASPDKLLEVPLGKAVNGSVRSFDLAKMPHILVAGSTGSGKSVAVNGIIASILMKARPDQIKFMMIDPKMVELSVYNDIPHLLIPVVTNPRKASKALQKVVDEMENRYELFSHFGVRNIAGYNAKVEEFNRHSETKHIPLPLLVVIVDELADLMMVASKEVEDAIIRLGQKARAAGIHMILATQRPSVDVISGLIKANVPSRIAFAVSSGTDSRTILDENGAEKLLGRGDMLFKPIDENHPVRLQGSFISDDDVERIVSFIKEQAEADYDESFDPGEVSEDDNSNGNGGNSEGDPLFEDAKALVLETQKASASMLQRRLSVGFNRATRLMEELEEAGVIGPAEGTKPRKVLQSN

These binders were tested against DacA-FLAG (Streptococcus mutans UA159) (assay: affinity purification with mass spectrometry; crosslinked; cells in PBS with 1% formaldehyde 20 min at room temperature, quenched with 0.125 M glycine, then lysate on anti-FLAG M2 affinity gel 3 h at 4°C, FLAG peptide elution; UA159 as no-FLAG control; hits at least twofold enriched with spectral counts >10).

Binder | binding
B1 | binds
B2 | binds
B3 | binds
B4 | binds
B5 | binds
B6 | binds
B7 | binds
